{"source": "PubChem BioAssay AID1053208 | Peter MacCallum Cancer Centre | 2014", "screen": "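Genes whose silencing cuts survival of bone tumour cells only with doxorubicin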 (primary screen)", "cell system": "mouse osteosarcoma cells, early-passage culture from an engineered mouse model of fibroblastic bone tumour", "reagent": "siRNA pool against mouse genes, 40 nM", "timing": "about 120 h (48 h before drug, then 72 h with drug)", "conditions": "doxorubicin 100 nM for 72 h, roughly 30-40% inhibitory dose", "read-out": "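Viability read as ATP luminescence after 72 h of 100 nM doxorubicin or none, duplicate wells averaged, scaled to non-targeting siRNA, then expressed as robust z-scores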", "reading the numbers": "viability z-score with doxorubicin: higher = more viable cells under doxorubicin; viability z-score without drug: higher = more viable cells with knock-down alone", "call rule": "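Called active if knock-down leaves viability unchanged without drug (z within -2 to 2) but lowers it with doxorubicin (z at or under -2)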", "note": "This is an unselected part of about 17,000 deposited reagents. 788 of them (4.7%) were called active. 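Calls rest on z-score classes alone; an extra cut-off of viability at most 70% of control was not applied to them.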 Not all columns of the deposit are shown. Reagent sequences are not shown."}
The first 2 entries, to show the layout:
{"target":"Gca (grancalcin)","combined z-score class":"no change with or without drug","viability z-score with doxorubicin":1.01,"viability z-score without drug":0.51,"activity call":"inactive"}
{"target":"Kat5 (K(lysine) acetyltransferase 5)","combined z-score class":"no change with or without drug","viability z-score with doxorubicin":1.8,"viability z-score without drug":0.17,"activity call":"inactive"}

The listing, from the first entry:
{"target":"Gca (grancalcin)","combined z-score class":"no change with or without drug","viability z-score with doxorubicin":1.01,"viability z-score without drug":0.51,"activity call":"inactive"}
{"target":"Kat5 (K(lysine) acetyltransferase 5)","combined z-score class":"no change with or without drug","viability z-score with doxorubicin":1.8,"viability z-score without drug":0.17,"activity call":"inactive"}
{"target":"Eci3 (enoyl-Coenzyme A delta isomerase 3)","combined z-score class":"high cell count without drug only","viability z-score with doxorubicin":1.35,"viability z-score without drug":2.19,"activity call":"inactive"}
{"target":"Gdnf (glial cell line derived neurotrophic factor)","combined z-score class":"no change with or without drug","viability z-score with doxorubicin":-0.11,"viability z-score without drug":0.84,"activity call":"inactive"}
{"target":"Cyp3a13 (cytochrome P450, family 3, subfamily a, polypeptide 13)","combined z-score class":"no change with or without drug","viability z-score with doxorubicin":0,"viability z-score without drug":-0.17,"activity call":"inactive"}
{"target":"Fgf8 (fibroblast growth factor 8)","combined z-score class":"no change with or without drug","viability z-score with doxorubicin":-0.34,"viability z-score without drug":0.67,"activity call":"inactive"}
{"target":"Mgp (matrix Gla protein)","combined z-score class":"no change with or without drug","viability z-score with doxorubicin":-1.12,"viability z-score without drug":1.69,"activity call":"inactive"}
{"target":"Orc2 (origin recognition complex, subunit 2)","combined z-score class":"no change with or without drug","viability z-score with doxorubicin":0.9,"viability z-score without drug":0.84,"activity call":"inactive"}
{"target":"Tmem209 (transmembrane protein 209)","combined z-score class":"no change with or without drug","viability z-score with doxorubicin":0.45,"viability z-score without drug":0.17,"activity call":"inactive"}
{"target":"Atp10b (ATPase, class V, type 10B)","combined z-score class":"no change with or without drug","viability z-score with doxorubicin":0.56,"viability z-score without drug":1.18,"activity call":"inactive"}
{"target":"Gnaz (guanine nucleotide binding protein, alpha z subunit)","combined z-score class":"high cell count without drug only","viability z-score with doxorubicin":0.22,"viability z-score without drug":2.02,"activity call":"inactive"}
{"target":"Got2 (glutamatic-oxaloacetic transaminase 2, mitochondrial)","combined z-score class":"no change with or without drug","viability z-score with doxorubicin":0,"viability z-score without drug":0.51,"activity call":"inactive"}
{"target":"Ncapd2 (non-SMC condensin I complex, subunit D2)","combined z-score class":"high cell count without drug only","viability z-score with doxorubicin":1.91,"viability z-score without drug":2.02,"activity call":"inactive"}
{"target":"Snx1 (sorting nexin 1)","combined z-score class":"no change with or without drug","viability z-score with doxorubicin":1.24,"viability z-score without drug":0.51,"activity call":"inactive"}
{"target":"Kcns1 (K+ voltage-gated channel, subfamily S, 1)","combined z-score class":"no change with or without drug","viability z-score with doxorubicin":-0.67,"viability z-score without drug":-0.34,"activity call":"inactive"}
{"target":"Or7h8 (olfactory receptor family 7 subfamily H member 8)","combined z-score class":"no change with or without drug","viability z-score with doxorubicin":0.45,"viability z-score without drug":0.34,"activity call":"inactive"}
{"target":"Pde4b (phosphodiesterase 4B, cAMP specific)","combined z-score class":"no change with or without drug","viability z-score with doxorubicin":-0.34,"viability z-score without drug":-1.35,"activity call":"inactive"}
{"target":"Atp5f1a (ATP synthase F1 subunit alpha)","combined z-score class":"no change with or without drug","viability z-score with doxorubicin":0,"viability z-score without drug":-1.35,"activity call":"inactive"}
{"target":"Plod3 (procollagen-lysine, 2-oxoglutarate 5-dioxygenase 3)","combined z-score class":"no change with or without drug","viability z-score with doxorubicin":-0.45,"viability z-score without drug":-1.52,"activity call":"inactive"}
{"target":"Dnajc22 (DnaJ heat shock protein family (Hsp40) member C22)","combined z-score class":"no change with or without drug","viability z-score with doxorubicin":-0.67,"viability z-score without drug":-0.17,"activity call":"inactive"}
{"target":"Ndufb3 (NADH:ubiquinone oxidoreductase subunit B3)","combined z-score class":"low cell count without drug only","viability z-score with doxorubicin":-1.69,"viability z-score without drug":-3.04,"activity call":"inactive"}
{"target":"Gstp3 (glutathione S-transferase pi 3)","combined z-score class":"no change with or without drug","viability z-score with doxorubicin":-0.9,"viability z-score without drug":-1.85,"activity call":"inactive"}
{"target":"Ropn1l (ropporin 1-like)","combined z-score class":"no change with or without drug","viability z-score with doxorubicin":0,"viability z-score without drug":-1.18,"activity call":"inactive"}
{"target":"Or56a4 (olfactory receptor family 56 subfamily A member 4)","combined z-score class":"no change with or without drug","viability z-score with doxorubicin":0.45,"viability z-score without drug":-0.84,"activity call":"inactive"}
{"target":"Zcchc8 (zinc finger, CCHC domain containing 8)","combined z-score class":"no change with or without drug","viability z-score with doxorubicin":1.01,"viability z-score without drug":1.35,"activity call":"inactive"}
{"target":"Gxylt2 (glucoside xylosyltransferase 2)","combined z-score class":"no change with or without drug","viability z-score with doxorubicin":-0.22,"viability z-score without drug":-1.18,"activity call":"inactive"}
{"target":"Mapk3 (mitogen-activated protein kinase 3)","combined z-score class":"no change with or without drug","viability z-score with doxorubicin":0.79,"viability z-score without drug":1.69,"activity call":"inactive"}
{"target":"H2bc1 (H2B clustered histone 1)","combined z-score class":"no change with or without drug","viability z-score with doxorubicin":0.22,"viability z-score without drug":-0.17,"activity call":"inactive"}
